From PMC2170442
These are yes or no findings as the source states them, for the method shown. Binding seen in cells or lysates may run through a third protein. Some entries that bind do so weakly or less than the wild type.

Sequences of proteins named here, by UniProt entry; tags and fusion partners are left off.
UniProt P35259: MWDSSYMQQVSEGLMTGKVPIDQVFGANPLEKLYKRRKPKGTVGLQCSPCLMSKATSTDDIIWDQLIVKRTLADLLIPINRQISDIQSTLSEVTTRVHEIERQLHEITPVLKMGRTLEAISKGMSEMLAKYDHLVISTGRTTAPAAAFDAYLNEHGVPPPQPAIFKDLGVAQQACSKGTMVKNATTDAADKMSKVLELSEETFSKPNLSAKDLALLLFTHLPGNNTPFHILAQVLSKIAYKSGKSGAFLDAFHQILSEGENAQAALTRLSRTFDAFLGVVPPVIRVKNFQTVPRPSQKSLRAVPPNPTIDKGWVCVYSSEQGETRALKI
UniProt P27588: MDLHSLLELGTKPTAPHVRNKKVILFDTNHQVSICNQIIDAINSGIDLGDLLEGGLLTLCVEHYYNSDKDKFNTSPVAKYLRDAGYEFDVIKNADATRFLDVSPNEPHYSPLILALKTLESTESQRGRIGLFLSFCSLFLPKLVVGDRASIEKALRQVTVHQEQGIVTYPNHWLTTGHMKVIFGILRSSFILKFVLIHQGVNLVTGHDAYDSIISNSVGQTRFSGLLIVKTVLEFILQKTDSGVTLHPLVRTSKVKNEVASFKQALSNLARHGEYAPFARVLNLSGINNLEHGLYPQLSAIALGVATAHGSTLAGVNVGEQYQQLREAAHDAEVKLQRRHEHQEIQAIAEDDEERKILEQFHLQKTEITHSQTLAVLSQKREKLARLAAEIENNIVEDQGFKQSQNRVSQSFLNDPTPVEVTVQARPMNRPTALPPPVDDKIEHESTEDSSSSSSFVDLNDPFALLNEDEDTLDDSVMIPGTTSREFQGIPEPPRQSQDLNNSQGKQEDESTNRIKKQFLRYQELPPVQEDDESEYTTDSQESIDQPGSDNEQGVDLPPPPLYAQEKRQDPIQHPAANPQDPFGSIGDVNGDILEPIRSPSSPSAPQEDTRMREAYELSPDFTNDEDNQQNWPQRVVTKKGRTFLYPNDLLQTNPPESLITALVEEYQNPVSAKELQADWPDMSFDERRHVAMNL

Tests used:
[1] = target: GST-VP35 (Marburg virus VP35 fused to GST) (Marburg virus (MARV)) (UniProt P35259); assay: pull-down; […] (200 mM NaCl) and buffer 2 (500 mM NaCl); […]; only the target purified
[2] = target: GST-NP (Marburg virus nucleoprotein fused to GST) (Marburg virus (MARV)) (UniProt P27588); assay: pull-down; […]) and buffer 2 (500 mM NaCl); […]; only the target purified

Which results are given for “Marburg virus nucleoprotein (NP), in vitro translated (from UniProt P27588 1-695)”?
binding [1]: binds; binding [2]: binds
